In article PMC8546589:
Read-outs that look alike come from different tables or passages of the source. No constants are given. Whether binding was seen depends on the method and setting. Binding seen in cells or lysates may run through a third protein. These calls come from enrichment with a bait or labelling near it, and not all partners need be listed. For part of these data: A no says only that the protein was not detected with the bait. Where a sequence is shown, tags or fusion partners need not be part of it.

What was measured:
[1] = molecular target: T1, Myc-EhAgo2-2 (E. histolytica) (UniProt C4LVV2); test: affinity purification with mass spectrometry; anti-c-Myc agarose IP from whole-cell lysate of E. histolytica lines overexpressing the Myc-tagged bait (EhAgo2-2 WT, its two mutants, EhRdRP1, EhRdRP2), 2 h at 4°C, six low-stringency washes; LC-MS/MS in triplicate; nonribosomal hits in at least 2 of 3 data sets, exclusive or ≥3-fold enriched against the Luc control
T1 sequence: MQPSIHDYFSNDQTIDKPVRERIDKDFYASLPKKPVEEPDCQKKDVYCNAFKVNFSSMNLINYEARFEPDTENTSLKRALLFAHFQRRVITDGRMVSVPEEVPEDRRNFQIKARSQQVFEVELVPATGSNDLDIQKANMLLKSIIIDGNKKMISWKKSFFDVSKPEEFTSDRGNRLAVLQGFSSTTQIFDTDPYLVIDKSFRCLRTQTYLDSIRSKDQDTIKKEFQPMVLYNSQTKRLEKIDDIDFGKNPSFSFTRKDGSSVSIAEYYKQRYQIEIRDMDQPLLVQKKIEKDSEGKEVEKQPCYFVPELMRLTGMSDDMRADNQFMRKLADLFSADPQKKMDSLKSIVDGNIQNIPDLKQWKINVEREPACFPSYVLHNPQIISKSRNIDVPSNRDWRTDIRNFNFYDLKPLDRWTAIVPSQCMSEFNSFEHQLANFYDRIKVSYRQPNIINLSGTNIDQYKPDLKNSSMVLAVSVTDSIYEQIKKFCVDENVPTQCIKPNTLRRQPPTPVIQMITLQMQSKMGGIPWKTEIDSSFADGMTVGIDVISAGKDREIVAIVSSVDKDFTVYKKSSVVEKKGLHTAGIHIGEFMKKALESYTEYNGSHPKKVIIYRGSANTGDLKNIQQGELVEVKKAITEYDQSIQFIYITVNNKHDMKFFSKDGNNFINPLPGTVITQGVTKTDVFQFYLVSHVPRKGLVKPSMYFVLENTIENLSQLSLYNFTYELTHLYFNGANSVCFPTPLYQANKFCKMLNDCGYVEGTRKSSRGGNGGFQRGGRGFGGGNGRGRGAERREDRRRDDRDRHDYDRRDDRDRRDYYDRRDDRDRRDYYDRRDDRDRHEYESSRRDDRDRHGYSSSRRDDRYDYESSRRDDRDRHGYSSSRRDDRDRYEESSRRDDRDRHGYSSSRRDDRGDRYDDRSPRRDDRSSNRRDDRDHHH

[2] = molecular target: T1, Myc-EhAgo2-2 (E. histolytica); test: as above; remark: listed apart in the source
[3] = molecular target: T2, Myc-NAP07 (E. histolytica) (UniProt C4M608); test: affinity purification with mass spectrometry; anti-c-Myc agarose IP from whole-cell lysate of E. histolytica lines overexpressing Myc-NAP07, Myc-NAP12, Myc-EBP-1, Myc-GNB2L1 or Myc-Tudor-like protein; LC-MS/MS in duplicate; hits in both replicates and exclusive against the Luc control
T2 sequence: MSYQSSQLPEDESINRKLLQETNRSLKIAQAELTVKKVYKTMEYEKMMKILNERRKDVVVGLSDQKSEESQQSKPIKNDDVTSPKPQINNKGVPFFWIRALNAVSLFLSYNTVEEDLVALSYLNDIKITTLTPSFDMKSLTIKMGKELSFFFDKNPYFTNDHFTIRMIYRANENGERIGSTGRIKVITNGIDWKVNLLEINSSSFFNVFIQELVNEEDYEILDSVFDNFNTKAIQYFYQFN

[4] = molecular target: T3, Myc-NAP12 (E. histolytica) (UniProt C4M8H9); test: as above
T3 sequence: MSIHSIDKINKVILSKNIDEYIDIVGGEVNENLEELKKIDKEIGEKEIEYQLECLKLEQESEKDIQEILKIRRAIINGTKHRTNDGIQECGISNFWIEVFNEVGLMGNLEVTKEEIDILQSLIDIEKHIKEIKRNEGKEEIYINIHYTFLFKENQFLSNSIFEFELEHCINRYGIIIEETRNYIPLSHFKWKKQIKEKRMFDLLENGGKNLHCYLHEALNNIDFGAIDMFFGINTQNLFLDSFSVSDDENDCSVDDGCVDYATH

Question: With chaperonin 1 as the molecule, how does the binding [1] read?
Answer: Its binding is “binds”.

Question: How did the binding [1] turn out when elongation factor 1-alpha 1 was run?
Answer: The binding was “binds”.

Question: Hsp70 was tested. Which binding [1] did it give?
Answer: The binding was “binds”.

Question: Which binding [1] does the source give for Hsp90 here?
Answer: The binding was “no binding”.

Question: MIR domain was tested. Which binding [1] did it give?
Answer: The binding was “binds”.

B1: DNA repair protein (EHI_114930) (protein, UniProt C4M7S7 1-764)
chain: MKRSCAPSQKKLLSQKPLHQPKQQEENQKKNPKVLLKVITQEKKKIDIIKVFKIMWAKNSPKKQKTFNDGFIVVNSNNIGLIHDEEDKVIGKVNNIMKEISPETIGGDSIILAGKVIEIEEEVPVEQYLSGKLFLHETAITITQPKFELKKTALGNGPIKKKKVSLYNKENPFAYCIDDKKEPAILIDPYIGKFLRPHQIEGVKFMYHCIMRGGECGCILADEMGLGKTLQTITLIWTVYKQCNIKKIVIVCPQSLIGNWEKEFKKWLGVERISVQTGSSDSSMKEKVNDFIRDYIPVLIISYEQVRSHVETLKKTKIGLIVCDEGHRIKNLMSKTNSSLKALGGSRHIILSGTPVQNGLEDFYSLIEFCSPGCLGTLSSFKRVFAIPIQKAQDGNASIEEIQLGTERAKELTNKLNDYVLRRTSQVNEKYLPDKTEIVLFIKPSYLQIKLYKIMLKELEKKKLDQCSALKYIQLFTKLCNHPSLISKYLTEEKISLNENDEKCIKGISLNEESSNKFNITIQFIKEILIKSKEKVVLVSNYTKTLDLFEIYFKQEEEYKQKKIFNYLRLDGKTSQKQRDIIVEKINDKSSNYNILLLSSKAGGVGLNLIGCSRLILFDPDWNPAKDKQAMARIWRDGQQKKAMIYRMLCTGTIEEKIYQRQLQKNQISESIIEEHLEMGKSLSVEQLMKIFELNTNTICDTHDLLQCDCCNGGYKTEEDTLHLIPKMKEEIKSIDPLISTIEGINKMVSMLFVNEFHNKQKMK
Question: B1 was tested. Which binding [2] did it give?
Answer: Its binding is “binds”.

B2: NAP12 (endogenous) (protein, UniProt C4M8H9 1-264)
chain: T3 sequence
Question: With B2 as the molecule, how does the binding [2] read?
Answer: Its binding is “binds”.

Question: And the binding [3]?
Answer: Its binding is “binds”.

B3: NAP07 (endogenous) (protein, UniProt C4M608 1-241)
chain: T2 sequence
Question: How did the binding [4] turn out when B3 was run?
Answer: The binding was “binds”.

B4: EhAgo2-2 (endogenous) (protein, UniProt C4LVV2 1-937)
chain: T1 sequence
Question: B4 was tested. Which binding [4] did it give?
Answer: Its binding is “binds”.

B5: URE3-BP (upstream regulatory element 3-binding protein) (protein, UniProt C4MBE2 1-227)
chain: MQFGYPPMQPPVANFCLWNLQPIQGSWMGAACIYQMPPSVRNTWWFPLLNTIPLDQYTRIYQWFMGVDRDRSGTLEINELMMGQFPGGIRLSPQTALRMMRIFDTDFNGHISFYEFMAMYKFMELAYNLFVMNDRNRSGTLEPHEILPALQQLGFYINQRTSLLLHRLFARGMAFCDLNCWIAICAFAAQTRSAYQMIFMNPYYGPMKPFNPMEFGKFLDVVTSLLE
Question: How did the binding [2] turn out when B5 was run?
Answer: Its binding is “binds”.

B6: RNase III domain protein (EHI_068740) (enzyme, UniProt C4LU64 1-256)
chain: MSSTTLHNAMQYTAFDVLSSILNLMKADPLYDLLQLNQAYSSQDQEYEKNEFYGDSYLEERASSLVLKFLRKYEQIPFEMYSGLRIHTVKNQTLGEIFDLLHLGDTKTFEKKKKGDLVESLIGGCVLLSQRENATLFLLFAHALIDYIFYHSSYIYFNANPPKLVKEEIITDIQNWFKDKLFYYRSSLEKYQTDPTNFYLEEQHVSVDLFDDKEEVDTNDIDYILSSSDPLDFGIPEPSFNMTTSPSWNSFVHPSQ
Question: With B6 as the molecule, how does the binding [2] read?
Answer: Its binding is “no binding”.
